Drawing on publication PMC6235892, this text covers binding for 3 molecules.

The chains behind the UniProt entries cited, without tags or fusion partners.
UniProt P10415: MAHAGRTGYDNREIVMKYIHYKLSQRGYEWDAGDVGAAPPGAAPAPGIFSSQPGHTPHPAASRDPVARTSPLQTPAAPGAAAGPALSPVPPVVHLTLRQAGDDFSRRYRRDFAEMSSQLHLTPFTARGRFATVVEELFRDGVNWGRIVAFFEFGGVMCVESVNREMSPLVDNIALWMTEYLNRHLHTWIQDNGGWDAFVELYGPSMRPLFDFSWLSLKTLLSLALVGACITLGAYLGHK
UniProt Q15388: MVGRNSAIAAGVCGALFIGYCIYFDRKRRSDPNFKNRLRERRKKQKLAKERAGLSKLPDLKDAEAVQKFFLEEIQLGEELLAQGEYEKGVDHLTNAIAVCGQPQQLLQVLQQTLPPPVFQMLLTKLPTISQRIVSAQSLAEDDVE
UniProt Q3V3Q7: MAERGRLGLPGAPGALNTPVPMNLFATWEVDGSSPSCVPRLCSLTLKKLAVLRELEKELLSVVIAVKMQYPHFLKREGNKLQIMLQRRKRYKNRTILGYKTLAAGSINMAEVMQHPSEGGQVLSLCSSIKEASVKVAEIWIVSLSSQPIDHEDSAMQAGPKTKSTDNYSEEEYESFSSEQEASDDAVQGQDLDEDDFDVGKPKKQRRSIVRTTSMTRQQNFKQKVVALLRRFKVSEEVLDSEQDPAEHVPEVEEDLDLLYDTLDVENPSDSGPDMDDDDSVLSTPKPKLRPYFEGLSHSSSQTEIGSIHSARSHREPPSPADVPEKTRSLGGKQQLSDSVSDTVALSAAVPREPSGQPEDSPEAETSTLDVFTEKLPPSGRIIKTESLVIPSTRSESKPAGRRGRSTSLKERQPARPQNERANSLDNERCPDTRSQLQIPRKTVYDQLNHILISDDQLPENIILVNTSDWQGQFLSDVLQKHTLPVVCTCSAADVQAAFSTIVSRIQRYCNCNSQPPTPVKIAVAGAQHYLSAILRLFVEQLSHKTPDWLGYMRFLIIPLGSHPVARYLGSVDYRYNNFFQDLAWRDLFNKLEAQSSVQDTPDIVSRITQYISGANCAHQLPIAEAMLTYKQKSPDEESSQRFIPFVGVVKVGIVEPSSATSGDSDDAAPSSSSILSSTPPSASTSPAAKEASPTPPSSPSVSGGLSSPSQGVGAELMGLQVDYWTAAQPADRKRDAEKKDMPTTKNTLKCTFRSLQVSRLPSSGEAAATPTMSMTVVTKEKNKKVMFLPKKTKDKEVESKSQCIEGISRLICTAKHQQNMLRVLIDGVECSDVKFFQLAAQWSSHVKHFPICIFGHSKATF
UniProt P04150: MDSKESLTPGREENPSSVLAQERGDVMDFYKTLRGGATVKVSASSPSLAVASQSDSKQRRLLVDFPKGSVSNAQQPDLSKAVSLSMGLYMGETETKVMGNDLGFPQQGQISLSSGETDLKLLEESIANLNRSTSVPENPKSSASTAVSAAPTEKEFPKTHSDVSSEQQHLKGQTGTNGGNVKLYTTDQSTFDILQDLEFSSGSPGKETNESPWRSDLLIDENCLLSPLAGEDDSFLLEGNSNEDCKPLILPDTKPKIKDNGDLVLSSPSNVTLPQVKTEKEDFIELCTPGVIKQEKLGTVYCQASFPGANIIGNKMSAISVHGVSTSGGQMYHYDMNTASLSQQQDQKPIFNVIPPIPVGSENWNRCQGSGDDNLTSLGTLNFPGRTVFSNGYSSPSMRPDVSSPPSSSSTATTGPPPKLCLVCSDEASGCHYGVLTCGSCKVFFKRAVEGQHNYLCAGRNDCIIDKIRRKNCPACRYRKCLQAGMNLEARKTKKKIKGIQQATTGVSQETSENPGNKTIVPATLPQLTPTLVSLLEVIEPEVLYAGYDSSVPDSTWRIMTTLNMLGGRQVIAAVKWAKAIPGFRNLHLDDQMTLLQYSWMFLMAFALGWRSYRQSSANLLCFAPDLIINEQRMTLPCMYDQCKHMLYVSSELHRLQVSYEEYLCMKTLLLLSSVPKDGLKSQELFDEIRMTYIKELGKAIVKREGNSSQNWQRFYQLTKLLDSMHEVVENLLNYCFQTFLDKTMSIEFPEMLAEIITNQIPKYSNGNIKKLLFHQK

Assay [1] concerns the target Bcl-2 (human (endogenous in SH-SY5Y)) (UniProt P10415). In words: co-IP; total lysates of SH-SY5Y cells (300 ug) with 10 ug primary antibody on magnetic beads, overnight at 4 °C; endogenous proteins; cells treated with or without cortisol (1 uM), in some panels bcl-2 siRNA before.
For assay [2], the target named is TOMM20 (human (endogenous in SH-SY5Y)) (UniProt Q15388). The assay is described as above.
Assay [3] deals with phosphofurin acidic cluster sorting protein 2 (PACS2), mouse (mouse (endogenous in hippocampus)) (UniProt Q3V3Q7). In words: co-IP; lysed hippocampus of male ICR mice exposed to vehicle or corticosterone (10 mg/kg), in one panel rapamycin (8 mg/kg) before; endogenous proteins.

Results are given in words; binding and its absence hold for the method and conditions named. In cells and extracts the contact can be indirect. Some entries that bind do so weakly or less than the wild type.

TOMM20 (from UniProt Q15388 1-145): in assay [1], the binding result was “binds”.
In the case of “glucocorticoid receptor (GR) (from UniProt P04150 1-777)”, the binding result in assay [2] and in assay [1] was “binds” each time.

B1: mfn2, mouse (protein, UniProt Q80U63 1-757)
chain: MSLLFSRCNSIVTVKKDKRHMAEVNASPLKHFVTAKKKINGIFEQLGAYIQESASFLEDTHRNTELDPVTTEEQVLDVKGYLSKVRGISEVLARRHMKVAFFGRTSNGKSTVINAMLWDKVLPSGIGHTTNCFLRVGGTDGHEAFLLTEGSEEKKSVKTVNQLAHALHQDEQLHAGSMVSVMWPNSKCPLLKDDLVLMDSPGIDVTTELDSWIDKFCLDADVFVLVANSESTLMQTEKQFFHKVSERLSRPNIFILNNRWDASASEPEYMEEVRRQHMERCTSFLVDELGVVDRAQAGDRIFFVSAKEVLSARVQKAQGMPEGGGALAEGFQVRMFEFQNFERQFEECISQSAVKTKFEQHTVRAKQIAEAVRLIMDSLHIAAQEQRVYCLEMREERQDRLRFIDKQLELLAQDYKLRIKQITEEVERQVSTAMAEEIRRLSVLVDEYQMDFHPSPVVLKVYKNELHRHIEEGLGRNLSDRCSTAIASSLQTMQQDMIDGLKPLLPVSMRNQIDMLVPRQCFSLSYDLNCDKLCADFQEDIEFHFSLGWTMLVNRFLGPKNSRRALLGYSDQVQRPLPLTPANPSMPPLPQSSLTQEELMVSMVTGLASLTSRTSMGILVVGGVVWKAVGWRLIALSFGLYGLLYVYERLTWTTKAKERAFKRQFVEYASEKLQLIISYTGSNCSHQVQQELSGTFAHLCQQVDITRDNLEQEIAAMNKKVEALDSLQSRAKLLRNKAGWLDSELNMFTHQYLQPSR
As for B1, the binding entry in assay [3] is on record as “binds”.
